The source of these data is PMC9668335.

Sequences of proteins named here, by UniProt entry; tags and fusion partners are left off. A change or cut given only in a name is not applied to a line headed by its entry.
UniProt Q96RK0: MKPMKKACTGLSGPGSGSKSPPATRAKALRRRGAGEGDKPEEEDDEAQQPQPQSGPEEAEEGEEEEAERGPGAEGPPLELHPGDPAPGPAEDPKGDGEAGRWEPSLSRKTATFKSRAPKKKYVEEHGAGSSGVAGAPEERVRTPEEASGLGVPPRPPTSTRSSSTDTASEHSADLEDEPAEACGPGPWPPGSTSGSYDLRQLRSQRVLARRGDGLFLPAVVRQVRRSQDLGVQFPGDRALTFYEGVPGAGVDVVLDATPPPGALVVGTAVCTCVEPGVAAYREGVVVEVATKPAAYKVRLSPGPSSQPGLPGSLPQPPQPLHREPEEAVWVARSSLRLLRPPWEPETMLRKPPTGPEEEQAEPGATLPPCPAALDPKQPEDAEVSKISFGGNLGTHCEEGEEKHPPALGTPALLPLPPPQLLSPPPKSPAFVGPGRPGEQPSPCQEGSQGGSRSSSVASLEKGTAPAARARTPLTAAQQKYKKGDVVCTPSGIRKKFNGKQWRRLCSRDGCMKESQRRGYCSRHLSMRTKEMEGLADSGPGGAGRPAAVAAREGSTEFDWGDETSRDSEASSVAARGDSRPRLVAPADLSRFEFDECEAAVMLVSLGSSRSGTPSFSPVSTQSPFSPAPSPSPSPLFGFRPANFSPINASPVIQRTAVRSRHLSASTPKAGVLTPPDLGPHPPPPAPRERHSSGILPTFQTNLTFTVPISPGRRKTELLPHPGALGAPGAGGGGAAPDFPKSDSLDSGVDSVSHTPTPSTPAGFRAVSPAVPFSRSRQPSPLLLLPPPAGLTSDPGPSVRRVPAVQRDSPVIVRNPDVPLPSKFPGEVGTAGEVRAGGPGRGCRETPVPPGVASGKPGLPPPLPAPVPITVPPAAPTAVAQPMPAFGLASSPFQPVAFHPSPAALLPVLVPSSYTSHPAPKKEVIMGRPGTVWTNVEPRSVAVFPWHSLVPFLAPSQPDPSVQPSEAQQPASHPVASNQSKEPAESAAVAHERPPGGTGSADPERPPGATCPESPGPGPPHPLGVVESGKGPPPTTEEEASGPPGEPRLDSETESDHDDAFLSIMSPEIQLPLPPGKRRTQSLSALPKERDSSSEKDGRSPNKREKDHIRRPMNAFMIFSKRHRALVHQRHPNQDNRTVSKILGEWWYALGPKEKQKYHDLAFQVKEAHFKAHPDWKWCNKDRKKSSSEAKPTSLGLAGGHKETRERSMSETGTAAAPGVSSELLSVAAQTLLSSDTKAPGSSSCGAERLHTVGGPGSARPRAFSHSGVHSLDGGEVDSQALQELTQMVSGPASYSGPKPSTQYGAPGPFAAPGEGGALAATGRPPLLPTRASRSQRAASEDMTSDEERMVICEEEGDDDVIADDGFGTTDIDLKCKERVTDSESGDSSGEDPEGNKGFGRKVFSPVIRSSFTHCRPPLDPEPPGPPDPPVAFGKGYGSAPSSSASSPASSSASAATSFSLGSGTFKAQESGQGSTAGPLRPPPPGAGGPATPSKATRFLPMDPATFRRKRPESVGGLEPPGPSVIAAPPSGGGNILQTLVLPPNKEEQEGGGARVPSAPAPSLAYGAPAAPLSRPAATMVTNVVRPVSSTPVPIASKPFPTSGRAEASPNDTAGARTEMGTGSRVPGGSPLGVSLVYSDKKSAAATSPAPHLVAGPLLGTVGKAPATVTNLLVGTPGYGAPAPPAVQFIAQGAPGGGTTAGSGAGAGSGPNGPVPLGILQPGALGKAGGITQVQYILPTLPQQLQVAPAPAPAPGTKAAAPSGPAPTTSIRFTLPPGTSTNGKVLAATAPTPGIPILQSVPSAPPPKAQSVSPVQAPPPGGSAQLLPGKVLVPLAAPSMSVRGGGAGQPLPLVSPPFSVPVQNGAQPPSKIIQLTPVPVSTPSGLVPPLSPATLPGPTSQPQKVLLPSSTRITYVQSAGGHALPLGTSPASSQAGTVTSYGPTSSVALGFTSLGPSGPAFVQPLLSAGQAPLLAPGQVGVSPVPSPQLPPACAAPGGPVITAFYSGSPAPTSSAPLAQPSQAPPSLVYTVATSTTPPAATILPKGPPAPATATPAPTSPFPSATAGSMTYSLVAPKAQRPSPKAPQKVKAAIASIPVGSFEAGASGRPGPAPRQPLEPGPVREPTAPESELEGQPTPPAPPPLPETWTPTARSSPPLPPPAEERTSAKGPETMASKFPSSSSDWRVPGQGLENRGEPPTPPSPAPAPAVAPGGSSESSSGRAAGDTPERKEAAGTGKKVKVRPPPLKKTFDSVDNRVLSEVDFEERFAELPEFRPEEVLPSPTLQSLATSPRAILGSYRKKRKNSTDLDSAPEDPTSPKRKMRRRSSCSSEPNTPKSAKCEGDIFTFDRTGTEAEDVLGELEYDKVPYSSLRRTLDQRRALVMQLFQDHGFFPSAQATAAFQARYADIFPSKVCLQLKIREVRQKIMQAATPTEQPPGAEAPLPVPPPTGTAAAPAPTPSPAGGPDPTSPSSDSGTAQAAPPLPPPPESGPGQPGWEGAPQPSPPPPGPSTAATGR

For the experiment, the target named is Myc-tagged Capicua (CIC) (human) (UniProt Q96RK0). Briefly: co-IP; HEK293T cells transfected with Myc-tagged CIC for 48 hr; lysate incubated with anti-myc magnetic beads (or IgG on Dynabeads Protein G) overnight at 4 °C; blotted for Myc or ERF.

These are yes or no findings as the source states them, for the method shown. In cells and extracts the contact can be indirect.

B1: ETS2 repressor factor (ERF), detected by ERF antibody in HEK293T lysate (protein, UniProt P50548 1-548)
chain: MKTPADTGFAFPDWAYKPESSPGSRQIQLWHFILELLRKEEYQGVIAWQGDYGEFVIKDPDEVARLWGVRKCKPQMNYDKLSRALRYYYNKRILHKTKGKRFTYKFNFNKLVLVNYPFIDVGLAGGAVPQSAPPVPSGGSHFRFPPSTPSEVLSPTEDPRSPPACSSSSSSLFSAVVARRLGRGSVSDCSDGTSELEEPLGEDPRARPPGPPDLGAFRGPPLARLPHDPGVFRVYPRPRGGPEPLSPFPVSPLAGPGSLLPPQLSPALPMTPTHLAYTPSPTLSPMYPSGGGGPSGSGGGSHFSFSPEDMKRYLQAHTQSVYNYHLSPRAFLHYPGLVVPQPQRPDKCPLPPMAPETPPVPSSASSSSSSSSSPFKFKLQPPPLGRRQRAAGEKAVAGADKSGGSAGGLAEGAGALAPPPPPPQIKVEPISEGESEEVEVTDISDEDEEDGEVFKTPRAPPAPPKPEPGEAPGASQCMPLKLRFKRRWSEDCRLEGGGGPAGGFEDEGEDKKVRGEGPGEAGGPLTPRRVSSDLQHATAQLSLEHRDS
Regarding B1, the binding result is on record as “no binding”.
